Source: patent US20250128203A1, “MODIFIED REDOX-ACTIVE SORBENTS FOR ELECTROCHEMICAL CARBON DIOXIDE SEPARATION” (The Johns Hopkins University, priority 2023, published 2025)

Assay: Flow-based EMCC prototype, cyclic CO2 capture/release
Protocol: In a typical experiment, the sorbent tank (20 mL scintillation vial with septum cap) was continuously bubbled with CO2 feed gas (balanced by N2) with the flow rate controlled by a mass flow controller (Alicat). For testing under simulated flue gas conditions, a gas mixture of 10% CO2+3% O2 balanced by N2 was used. An infrared-based CO2 sensor (SprintIR-W 100%) was connected at the gas exit to monitor the CO2 concentration continuously. The tank headspace was filled with plastic beads (McMaster-Carr) to limit the mixing time in the headspace. The Fc tank was kept air free. A two-channel peristaltic pump (Masterflex) circulated the sorbent and the Fc electrolyte to a commercial flow cell (Scribner) at a flow rate of 10 mL min^−1. The flow cell utilised graphite plates with 5 cm^2 interdigitated flow fields pressed against two pieces of carbon paper electrodes (Sigracet 28 AA) at each side of the graphite electrodes to distribute the liquid flow. A Nafion™ 115 membrane was sandwiched by two pieces of polypropylene and placed between the carbon paper electrodes. The cell was kept sealed by Kalrez fluoropolymer elastomer gaskets (0.02 inches thick). CO2 capture was conducted in a constant current mode while the release was carried out following a constant current/constant voltage protocol (that is, oxidizing the adduct at a constant current until a specific cut-off voltage followed by a constant voltage hold (the cut-off current for the constant voltage hold was 5% of the value used in the constant current oxidation). The cycling protocols of each experiment are provided in the corresponding figure captions.
For experiments using 6MCIId sorbent, we added 10 mM 6MCIId and 4 mM ferrocenium tetrafluoroboronate (FcBF4) into the CE tank to mitigate sorbent crossover and facilitate the reduction of the oxidised ferrocenium in the counter electrolyte, respectively. For less soluble 55DBIId and 66DBIId, the sorbent was dispersed in DMAc to form a slurry catholyte.

[1] = 12 mL 75 mM sorbent slurry in DMAc, 0.25 M NaClO4, 10 mA
[2] = 75 mM sorbent slurry in DMAc, 0.25 M NaClO4
[3] = 10% CO2 feed, 2 sccm, 0.1 M sorbent in DMF, 0.25 M NaClO4, 10 mA
[4] = 10% CO2 feed, 0.1 M sorbent in DMF, 0.25 M NaClO4
[5] = 100% CO2 headspace, 0.25 M sorbent in DMF, 0.5 M NaTFSI

For `O=C1Nc2cc(Br)ccc2/C1=C1\C(=O)Nc2cc(Br)ccc21` [66DBIId, 6,6′-Dibromoisoindigo], the “Energy consumption, 2nd capture/release cycle” value [1] was 166.9 kJ per mol CO2 concentrated.
For `O=C1Nc2ccc(Br)cc2/C1=C1\C(=O)Nc2ccc(Br)cc21` [55DBIId, 5,5′-Dibromoisoindigo], the “Average CO2 utilisation efficiency” value [2] was “approximately 80%”, the Average release/capture efficiency [2] was “approximately 80%” and the “Energy consumption, 2nd capture/release cycle” value [1] was 135.2 kJ per mol CO2 concentrated.
In the case of `COC(=O)C(CO)NC(=O)c1ccc2c(c1)NC(=O)/C2=C1/C(=O)Nc2cc(Br)ccc21` (stereo not shown) [6B6AIIdSer, Methyl 6-bromoisoindigo-6′-carbonylserinate], the Initial energy capacity (0.2 M, 5 mL) is reported as 53.6 mAh, the “Early-stage energy consumption, 2nd capture/release cycle” value (5 mL 0.2 M sorbent in DMF, 0.5 M NaTFSI, 10 mA) is reported as 158.6 kJ per mol CO2 concentrated and the “Energy capacity of the flow cell in the last cycle tested” value (−1.3 V cut-off potential, 0.2 M, 5 mL) is reported as 7 mAh.
With `COC(=O)c1ccc2c(c1)NC(=O)/C2=C1/C(=O)Nc2ccccc21` [6MCIId, Methyl isoindigo-6-carboxylate] the “Single pass CO2 removal” value (1% CO2 with 0.3% O2 feed) was “greater than 90%”, the “Early-stage energy consumption, CO2 captured” value (1% CO2 with 0.3% O2 feed, 0.25 M sorbent in DMF, 0.5 M NaTFSI, 25 cm^2 electrode) was 224.2 kJ mol^−1 CO2 and the “Electrical energy consumption, first cycle” value [3] was 127.3 kJ mol^−1 CO2. For the same compound, the “Electrical energy consumption, over the first 16 cycles” value [3] was 142.5±8.2 kJ mol^−1 CO2, the “CO2 capacity utilisation, average over 19 cycles” value [4] was 65% and the “Electrochemical (Coulombic) efficiency” value [4] was “approximately 84%”. The “Release/capture efficiency, average” value [4] was 97%, the “Early-stage energy consumption, CO2 captured” value [5] was 143.7 kJ mol^−1 CO2 and the “Early-stage energy consumption, CO2 released” value [5] was 13.6 kJ mol^−1 CO2. The “Early-stage energy consumption, 2nd capture/release cycle” value (higher percentage of CO2 removal: 10% CO2, 1 sccm, 0.2 M sorbent in DMF, 0.5 M NaTFSI, 12 mA) was 230.7 kJ per mol CO2 concentrated, the “CO2 capacity utilisation efficiency” value (simulated flue gas (10% CO2+3% O2 balanced in N2), approximately 90 hours) was “approximately 50%” and the “Energy consumption, 2nd capture/release cycle” value (simulated flue gas: 10% CO2 and 3% O2 in N2, 2 sccm, 0.1 M sorbent in DMF, 0.5 M NaTFSI) was 170.7 kJ per mole of CO2 concentrated.
